Like-named read-outs stand apart in the source and are kept apart here. At least one structure is not confirmed: it was looked up by name or label, or the drawing left a doubt.
Assays:
[1] = tested on: intra-abdominal adhesion formation; test: Approach 1: prevention of intra-abdominal adhesion formation by eRAPA chow in post-surgical adhesion model (planned); assay type: in vivo, Sprague-Dawley rats; conditions: eRAPA chow from day 4 post-surgery
[2] = tested on: established intra-abdominal adhesions; test: Approach 2: regression of established intra-abdominal adhesions by eRAPA chow in post-surgical adhesion model (planned); assay type: in vivo, Sprague-Dawley rats; conditions: eRAPA chow for 3 weeks starting 3 weeks post-surgery
post-surgical adhesions = conditions: daily IP injection immediately following surgery, rat, cited from earlier work

CO[C@H]1C[C@@H]2CC[C@@H](C)[C@@](O)(O2)C(=O)C(=O)N2CCCC[C@H]2C(=O)O[C@H]([C@H](C)C[C@@H]2CC[C@@H](O)[C@H](OC)C2)CC(=O)[C@H](C)/C=C(\C)[C@@H](O)[C@@H](OC)C(=O)[C@H](C)C[C@H](C)/C=C/C=C/C=C/1C [rapamycin, (3S,6R,7E,9R,10R,12R,14S,15E,17E,19E,21S,23S,26R,27R,34aS)-9,10,12,13,14,-21,22,23,24,25,26,27,32,33,34,34a-hexadecahydro-9,27-dihydroxy-3-[(1R)-2-[-(1S,3R,4R)-4-hydroxy-3-methoxycyclohexyl]-1-methylethyl]-10,21-dimethoxy-6,8,12,14,20,26-hexamethyl-23,27-epoxy-3H-pyrido[2,1-c][1,4]oxaazacyclohent-ria-contine-1,5,11,28,29(4H,6H,31H)-pentone]
plasma PAI-1 compared to control animals [1]: lower levels
plasma tPA compared to control animals [1]: higher levels
plasma PAI-1 compared to control animals [2]: lower levels
plasma tPA compared to control animals [2]: higher levels
adhesion development (post-surgical adhesions): of no benefit in preventing adhesions
adhesion development (post-surgical adhesions; listed as RAPA): enhanced adhesion development

From patent US20180015074A1, “USE OF MTOR INHIBITORS TO PREVENT AND REGRESS EDHESIONS AND FIBROSIS” (THE BOARD OF REGENTS OF THE UNIVERSITY OF TEXAS SYSTEM, priority 2015, published 2018)
